This passage reports z-score results from PubChem BioAssay AID1508600 (Functional Genomics Laboratory (NCATS/FGL), 2020).

Out of some 53,000 sequences screened, about 3,700 (7%) were called active.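 The calls were made as follows: active = gene knockdowns whose robust z-score for IL-1 alpha signal is at least 2 or at most -2, so actives lie on both sides; inactive = the rest.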 This is one part of the list.

A short description of the experiment: Components of the Cytosolic LPS Sensing Pathway: Gene Identification via Genome-wide siRNA Screen.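 Also: robust z of the log signal after scaling to non-targeting control siRNA wells of the plate.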 The following applies: RAW264.7 macrophages, IL-1a HTRF, actives lie on both sides, screened at 100 nM (by protocol), cells primed 5 h with Pam3CSK4 first. In outline:
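Supernatant IL-1a by HTRF from RAW264.7 cells primed with Pam3CSK4 (5 hours) and transfected with LipidA (24 hour) after 48h siRNA knockdown at 100 nM; cell viability checked with CellTiter-Glo.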
Background: TR-FRET usually uses a lanthanide donor and a delayed reading to cut background.
For GAUGCUGCCAACAUGACACTT against Clps, the z-score is inactive: 0.451.
To GGAAGAAAAAGUCCUGUCCTT against Aoc1 belongs inactive: -0.984.
Consider GCUCUGUGUGGUCUCCUAATT against Nrm, for which the z-score is inactive: -1.9.
With GUCUCAAGUGGACUGUGAGTT against Klk1b4, the z-score was active: -2.83.
As for GGAAAUUUCAGUCGAACAGTT against Arhgap31, the figure is inactive: 0.333; as for GCUGGAUCUCAAGAAAAAUTT against Pou4f2, inactive: 0.0727; as for GGUAUUUAAACUCUUGGGATT against Mpdu1, inactive: -0.636.
To GGAGAAAGCCAAAUUUAACTT against Slc17a6 belongs inactive: 0.103.
As for GACUCAUUCUGCAAUGAAGTT against Ifna5, the figure is inactive: 0.105.
Consider GGACUUCUACAUUGAACUUTT against Megf11, for which the z-score was inactive: 1.03.
On to CCCACUGGAAGAUUCAAACTT against Zfp623, for which the z-score was inactive: 0.441.
GGAGUUCAUUAUCUUGGCUTT against Rsad1: the z-score was inactive: 0.0698.
Take “GGUACUGCCAUGUAGGAAATT against A330008L17Rik”: the z-score was inactive: 0.766.
On to CCUUUGGAAUUUCUAAUACTT against Stil, for which the z-score is inactive: -0.286.
GGAGGUCCAGAAGAAUUAUTT against Pam16: the z-score was inactive: 0.957.
Consider GGCUCCAGUCCGUUUUGAATT against Nrarp, for which the z-score is inactive: 0.0759.
In the case of GCUAUUUGUCCACAAGUUCTT against Rab2a, the z-score was inactive: 1.05.
To GCUAAUUCCCUGGCCUCAATT against Tro belongs inactive: -0.627; to GGUGAAGUUGCCAAGAAAGTT against Reg3g, inactive: 0.223; to GGCAAAGAAGGAGAAAGUATT against Cd209c, active: -2.06.
As for GGGUGGUGUUCCAUGACAGTT against Ubp1, the figure is inactive: -1.82; as for GGAAGUACAAUGCAGAUUGTT against Vmn2r1, inactive: 0.218.
As for GCCUCAAUGGCACUCAAAUTT against Mdc1, the figure is inactive: -0.217; as for GGGAAAAUCCACUUUUAAGTT against Hs2st1, inactive: -0.0469; as for GGCAUGUCGAUCUGACCUUTT against Kcnc1, inactive: 1.18.
With GGUCUGAAGUAUAGCAAUGTT against Dynll2, the z-score was inactive: -1.33.
To GCUUCUGACUUGUGAUGUGTT against Ppp6r2 belongs inactive: -1.02.
As to GGACUAUCAGCAUUUCGUUTT against Coq10b, the z-score was inactive: -0.94.
As for “GGCCAACUCACCUUUCUAGTT against D630023F18Rik”, the figure is inactive: 1.84; as for GGCAAAAUUUUAUAAGCUGTT against Ttf1, inactive: -1.31.
Take GCACAGCUAAACUUAACUATT against Taz: the z-score was inactive: 0.711.
Consider GGAUUUACAUUCUCAUUGUTT against Olfr995, for which the z-score is inactive: -1.38.
As for GGGAGAACUCCUGAUUGACTT against Nnmt, the figure is inactive: 0.467.
As for GCCUAACUAUGAAACUUCGTT against Ppp1r11, the figure is inactive: 0.754.
For the sequence “GGCCUUCAGUCAAAUGGGATT against 4921536K21Rik”, the z-score is inactive: -1.55.
As for GGAGGAGCGGUUUUAUCAGTT against Ubxn8, the figure is inactive: 0.899; as for GGCAGUGAGAGUCACAAGATT against Cdipt, inactive: -1.74.
As for CCAAGUGGUACGACCAUGATT against Gcnt3, the figure is inactive: 1.3.
As to GGAAGACCCACAAAGGCUUTT against Rpl3l, the z-score is inactive: 0.686.
For GCUUCAUCUCCUAAAGCCCTT against Ring1, the z-score is inactive: 0.176.
To GGUGAAAGUCACUAAAUCCTT against Vmn1r15 belongs inactive: -1.39; to CCUCACCAAACCUUGUUGATT against Cd300lg, inactive: -1.57; to GGCCAUGCUGAAAGUAUUUTT against Olfr561, inactive: -1.46.
Consider GGACACAGACCUUUGUUAATT against Lpar6, for which the z-score is inactive: -0.0566.
To GAGUAGGAAUUAGAAUGAUTT against Tmem47 belongs inactive: -0.00808; to GCGCGACCUUCGAAUGUAATT against Rnf5, inactive: -0.834; to GCUCAUAAAGCUGUAUAAATT against Zik1, inactive: 0.354.
As to CCGAAUUAAGAAAGUGGUUTT against Ap1g1, the z-score was inactive: -0.651.
As to GCCUCUGAACUGAAAAAAATT against Tmem204, the z-score was inactive: -1.29.
As for GCUUGGGUCAUAGGGAUGATT against Olfr1288, the figure is inactive: -0.371; as for CGAAGAUAAUUAUGGAGCCTT against Fat4, inactive: 0.548.
To GAAGCUUGUAGUGACUGCCTT against Vmn1r30 belongs inactive: -0.765.
As for CCUCAGAAUAAAUGAAUCCTT against Oxld1, the z-score was inactive: -1.82.
On to GCAGGACUUGACAAUAGUCTT against Itgb1bp2, for which the z-score is inactive: -1.1.
Take GGAAUAAAUGUCGUCCCUUTT against Marcksl1: the z-score was inactive: 0.194.
Take GGGCCUUCCAAAAAAGAAGTT against Tut7: the z-score was inactive: -0.383.
As for GGGCCAGUCAUUGAAGAUUTT against U2af2, the figure is inactive: -1.13; as for GGCCAUCUUUCUAUACAAATT against Bcl10, inactive: 1.17.
As for CCUACGUGCUGUGAGAUUCTT against Ccl25, the figure is inactive: -0.314.
Regarding GGUGCCAGAAGAUUUACGATT against Fmr1, the z-score is inactive: 1.12.
On to GGCUUUUUAUUCUCAGCCUTT against Rmdn1, for which the z-score is inactive: 0.34.
To GGCCACAGUGACUUUCAUCTT against Eif4e2 belongs inactive: -0.857; to CGGGUCCAGCCAAUUGCAUTT against Plxnc1, inactive: -0.98.
Take GGAUGUUGGUACUUUUUGATT against Pwp1: the z-score was inactive: -0.254.
GGUGUACAACAUCAGCGACTT against Fads1: the z-score is inactive: -0.454.
As for GCCCGUGUCAUCAUUUUCUTT against Doxl2, the figure is inactive: 0.208; as for GGCAUCCAAGCAAAAUGGCTT against Eng, inactive: -1.39; as for GGUGGAGUUUCUCAAAAGCTT against Kcnc3, inactive: 0.0264.
